Tested on: calf thymus DNA (ct-DNA)
Test: Ethidium bromide displacement and fluorescence lifetime
Type: binding
Conditions: ct-DNA–EtBr–complex 1:5:12.5 ratio, pH 7.40
Experimental: The interaction of 4 and 8 and HL^4 and HL^8 with ct-DNA was investigated by spectrofluorometry in ethidium bromide (EtBr) displacement studies. EtBr is a fluorescent probe, and its fluorescence intensity increases upon intercalation into the DNA helix. […] Decrease in the fluorescence may indicate (i) the displacement of EtBr or (ii) (partial) quenching of the fluorescence of the bound probe. In order to separate these processes, fluorescence lifetime measurements were carried out. […] In addition, they provided evidence that the two copper(II) complexes bind to ct-DNA. However, complex 8 replaced EtBr more effectively than 4. To get further insight into the mechanism of action of lead compounds, their antiproliferative activity in wild-type cells HCT116 and HCT116 cell subline with knocked out p53 gene was investigated.
Fluorescence measurements were carried out on a Fluoromax (Horiba Jobin Yvon) fluorometer. A stock solution of calf thymus DNA (ct-DNA, Sigma Aldrich) was prepared as described in our former work.[105] Samples contained 10 μM ct-DNA expressed in base pairs, 5 μM ethidium bromide (EtBr, Sigma Aldrich), and different concentrations of complexes 4 or 8 or proligands HL^4 or HL^8 in 10 mM HEPES buffer (pH = 7.40). The excitation wavelengths were 510 or 455 nm, and the fluorescence emission was measured in the range 530–750 nm. Corrections for self-absorbance and inner filter effect were done according to our former work.[106] Fluorescence lifetime was measured on the same fluorometer equipped with a DeltaHub time-correlated single photon counting (TCSPC) controller using a NanoLED light source N-455 (Horiba Jobin Yvon). Details on the instrument parameters are found in Table S3. The fluorescence intensity decay over time is described by a sum of exponentials, [drawing 3] 3 where αi and τi are the contribution to the total intensity (I) at time point 0 and lifetime of component i, respectively.[107] […] Fractional intensities were calculated as described in our former work.[105]
Figure S 8. Fluorescence intensity values of the ct -DNA–EtBr system in the presence of increasing amount of HL4 (◊), HL8 (∆), 4 (♦) and 8 (▲), orange dashed line denotes the emission signal of free EtBr. […]
Figure S9. Deconvoluted fluorescence intensities and lifetime values (τ) of the ct-DNA–EtBr– indicated complex systems at 1:5:12.5 ratio based on steady -state and fluorescence lifetime measurements. τ3 can be attributed to the intercalated EtBr; in the presence of 8 it was decreased […]
most probably EtBr bound electrostatically at the phosphate backbone of DNA, its relatively large uncertainty is due to the sma ll quantity of this form at these conditions. τ 1 was kept constant in the calculations. {cDNA = 10.0 µM; λEX = 455 nm, λEM = 610 nm; T = 298 K; 10 mM […]

| SMILES | fluorescence lifetime t2 (EtBr bound electrostatically) [ns] | fluorescence lifetime t3 (intercalated EtBr) [ns] |
| --- | --- | --- |
| CC(=NNC1=NCc2ccccc2-c2c1[nH]c1ccc(Br)cc21)c1ccc(CN2CCOCC2)cn1.[Cl][Cu][Cl] [compound 4, CuCl2(HL^4)·0.5H2O] | 5.8 ± 0.6 | 21.21 ± 0.04 |
| CC(=NNc1nc2ccccc2c2c1[nH]c1ccc(Br)cc12)c1ccc(CN2CCOCC2)cn1.[Cl][Cu][Cl] [compound 8, CuCl2(HL^8)·H2O] | 6.6 ± 0.3 | 18.83 ± 0.06 |

Reference: PMC8842277, “Highly Antiproliferative Latonduine and Indolo[2,3-c]quinoline Derivatives: Complex Formation with Copper(II) Markedly Changes the Kinase Inhibitory Profile” (Journal of Medicinal Chemistry, 2022)
